Results as given in PubChem BioAssay AID2517 (National Center for Advancing Translational Sciences (NCATS), 2010).
Out of some 350,000 compounds screened, about 1,200 (0.34%) were called active. The shares of active, inactive and inconclusive entries below differ from those in the screen. Calls follow the shape of the dose curve; as a rule, active = well fitted inhibition curve with a large enough effect; inconclusive = small, poorly fitted or top-dose-only effect; inactive = no such curve, though single readings can be large or run the other way. Potencies beside an inconclusive call are fits to weak or partial responses and may not hold up.

Amino acid sequences for entries named in this document (tags omitted).
UniProt P27695, whole entry, looked up: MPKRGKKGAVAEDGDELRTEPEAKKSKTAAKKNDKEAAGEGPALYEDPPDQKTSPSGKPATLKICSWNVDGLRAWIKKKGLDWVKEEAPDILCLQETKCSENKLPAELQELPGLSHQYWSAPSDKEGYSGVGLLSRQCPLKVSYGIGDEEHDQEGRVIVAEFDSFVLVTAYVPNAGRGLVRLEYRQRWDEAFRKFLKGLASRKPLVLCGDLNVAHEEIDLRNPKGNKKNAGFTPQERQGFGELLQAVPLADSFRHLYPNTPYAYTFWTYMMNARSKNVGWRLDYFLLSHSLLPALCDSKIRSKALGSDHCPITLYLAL

Each compound was assayed against DNA repair nuclease/redox regulator APEX1 (Homo sapiens) (UniProt P27695) (assay: qHTS Assay for Inhibitors of the Human Apurinic/apyrimidinic Endonuclease 1 (APE1)). Conditions: recombinant APE1, TAMRA/BHQ-2 abasic DNA cleavage fluorescence; series mostly up to 65.8 µM.
Method in brief: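 Readout is kinetic fluorescence (ex 525, em 598 nm) from cleavage of 50 nM TAMRA/BHQ-2 THF abasic duplex by 0.75 nM APE1, compound added 15 min beforehand at RT.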
Also: nearly all actives have a fitted effect of over 55% in size.
Potency is read from the fitted curve at half-maximal effect.

| SMILES | Potency |
| --- | --- |
| O=C1C=C(NCc2ccc(Cl)c(Cl)c2)C2(CCCCC2)O1 | inactive |
| CCCCc1ccc(NC(=O)COc2ccc(C(=O)Nc3ccccc3C)cc2)cc1 | inconclusive: 35.5 µM [inhibitor, single point] |
| COc1ccc(N(C)S(=O)(=O)c2c(C)[nH]c(=O)[nH]c2=O)c(OC)c1 | inactive |
| CNc1n[nH]c(=S)s1 | inactive |
| Cc1cccc(NC(=O)CNC(=O)c2cccc(-n3cccc3)c2)c1C | active: 1.89 µM |
| CCN(c1ccccc1)S(=O)(=O)c1ccc(Cl)c(C(=O)NCC2CCCO2)c1 (stereo unspecified) | inconclusive: 44.7 µM [inhibitor, single point] |
| Cc1cccc2nc(-c3cccc(NC(=O)Cc4ccccc4)c3)cn12 | inactive |
| CCn1c(=S)[nH]c2ccccc21 | inconclusive: 39.8 µM [inhibitor, single point] |
| CCCCNC(=O)c1cc2cccc([N+](=O)[O-])c2[nH]1 | inactive |
| Cc1cccc(N2CCN(C(=O)Cn3sc4nc(C)cc(C)c4c3=O)CC2C)c1 (stereo unspecified) | inactive |
| Oc1ccc(/C=N/N(c2ccccc2)c2ccccc2)cc1O | inactive |
| CC1CCC/C(=C\Nc2ccc(O)cc2)C1=O (stereo unspecified) | inactive |
| O=C1CCCC2=C1C(c1ccco1)Nc1ccc3ccccc3c12 (stereo unspecified) | active: 14.1 µM |
| COC(=O)[C@H](Cc1ccccc1)NC(=O)O[C@@H]1Cc2cc(OC)ccc2O[C@H]1c1cccc(OC)c1 | inactive |
| CC(C)N(CC#CCC1(O)c2ccccc2-c2ccccc21)CCO | inconclusive: 14.1 µM [inhibitor, partial curve, poor fit] |
| CC(C(=O)N(C)C1CCS(=O)(=O)C1)N1C(=O)/C(=C/c2ccc(F)cc2)SC1=S (stereo unspecified) | inactive |
| C#CCOCCOCCOCCNc1nc(N2CCN(C(=O)CCCCCCCCCCNC(=O)Cn3cc(C[C@@H](C)O)nn3)CC2)nc(N2CCN(C(=O)CCCCCCCCCCNC(=O)[C@@H]([C@H](C)CC)n3cc(CCCCCN)nn3)CC2)n1 | inconclusive: 37.7 µM [inhibitor, single point] |
| COC(=O)c1ccccc1NC(=O)c1noc2c1CCC2 | inconclusive: 20 µM [inhibitor, partial curve] |
| O=C1C=C[C@@H](O)[C@H]2[C@@H]3C(=O)N(C[C@@H]4CCCO4)C(=O)[C@@H]3CC[C@H]12 | inconclusive: 4.47 µM [inhibitor, single point] |
| Cc1ccc2cc(/C=N/NC(=O)c3ccccc3[N+](=O)[O-])c(Cl)nc2c1 | inconclusive: 44.7 µM [inhibitor, single point] |
| O=c1cc(-c2ccc(O)cc2)oc2c([C@@H]3O[C@H](CO)[C@@H](O)[C@H](O)[C@H]3O)c(O)c([C@@H]3O[C@H](CO)[C@@H](O)[C@H](O)[C@H]3O)c(O)c12 | inconclusive: 3.16 µM [inhibitor, single point] |
| CC(C)[C@H](NS(=O)(=O)c1cccc(Cl)c1)C(=O)OCC(=O)NC(=O)CN1CCCC1=O | active: 13.4 µM |

| SMILES | Potency |
| --- | --- |
| Cc1cc(NC(=O)COC(=O)c2cccc(S(=O)(=O)N(C)C3CCCCC3)c2)no1 | inconclusive: 35.5 µM [inhibitor, single point] |
| COC(=O)[C@@]1(Cc2ccc(F)cc2)[C@H]2c3cc(C(=O)N(C)C)n(CCc4ccc(OC)c(Br)c4)c3C[C@H]2CN1C(=O)c1ccccc1 | inconclusive: 4.47 µM [inhibitor, single point] |
| O=c1[nH]c2cc(Cl)cc(Cl)c2[nH]c1=O | inconclusive: 44.7 µM [inhibitor, single point] |
| O=C(Cc1nnc(NC(=O)c2ccccc2)s1)N/N=C\c1ccc(O)c(O)c1 | inconclusive: 5.97 µM [inhibitor, partial curve] |
| CCc1cc2ccc(OC)cc2nc1SCC(=O)N1CCN(C(=O)c2ccco2)CC1 | inactive |
| Oc1ccc(N=C/C=C/c2ccc(Br)cc2)cc1-c1nc2ccccc2s1 | inactive |
| COc1cc(/C=N/NC(=O)c2cc(-c3ccco3)nc3ccccc23)cc(OC)c1O | inconclusive: 14.1 µM [inhibitor, partial curve] |
| Cc1onc(-c2ccccc2)c1C(=O)Nc1nnc(COc2ccc(Cl)cc2)s1 | inactive |
| Oc1ccc(-c2nc(-c3ccc(F)cc3)c(-c3ccncc3)[nH]2)cc1 | inconclusive: 44.7 µM [inhibitor, partial curve, poor fit] |
| O=C(CSc1ccsc1[N+](=O)[O-])N1CCN(c2ccc(Cl)cc2)CC1 | inconclusive: 15.8 µM [inhibitor, partial curve] |
| O=C(N/N=C/c1cccnc1)c1cc(O)c(O)c(O)c1 | inconclusive: 23.8 µM [inhibitor, partial curve] |
| O=C(Nc1nnc(-c2ccncc2)o1)c1ccccc1F | inconclusive: 0.562 µM [inhibitor, full curve] |
| CCOC(=O)C1CCC(CN(Cc2ccccc2C)S(=O)(=O)c2ccc([N+](=O)[O-])cc2)CC1 (stereo unspecified) | inconclusive: 56.2 µM [inhibitor, partial curve, poor fit] |
| CCN(CC)CCCNc1nc2cc(OC)c(OC)cc2c2nc(-c3ccccc3)nn12 | inconclusive: 15.8 µM [inhibitor, partial curve] |
| NC(Cc1cc(I)c(Oc2ccc(O)c(I)c2)c(I)c1)C(=O)O (stereo unspecified) | inconclusive: 10 µM [inhibitor, full curve, poor fit] |
| Cc1c(C(=O)OCC(=O)Nc2ccc(C(N)=O)cc2)cccc1[N+](=O)[O-] | inconclusive: 35.5 µM [inhibitor, single point] |
| CCOC(=O)N1CCC(NC(=O)c2cccc3c2C(=O)N(c2ccc(OC)cc2)C3)CC1 | inconclusive: 25.1 µM [inhibitor, partial curve] |
| CN1CCN(c2nc(-c3ccccn3)nc3ccccc23)CC1 | inconclusive: 7.94 µM [inhibitor, single point] |
| Cc1ccccc1CS(=O)(=O)CCC(=O)O | inconclusive: 35.5 µM [inhibitor, partial curve] |
| Cc1ccc(CNC(=O)CSc2ccc(-c3ccco3)nn2)cc1 | inactive |
| COc1ccc(N2CCN(C(=O)CSc3nnc4c(C)cc5cc(C)ccc5n34)CC2)cc1 | inconclusive: 28.2 µM [inhibitor, partial curve] |
| Cc1ccc2cc(C)c3nnc(SCC(=O)NCc4ccco4)n3c2c1 | inconclusive: 39.8 µM [inhibitor, single point] |

| SMILES | Potency |
| --- | --- |
| COc1ccc(S(=O)(=O)N2CN(CCc3ccc(OC)c(OC)c3)c3nc4ccccc4nc32)cc1 | inconclusive: 2.82 µM [inhibitor, single point] |
| Nc1cccc2[nH]c(C(F)(F)F)nc12 | inconclusive: 22.4 µM [inhibitor, single point] |
| COC(=O)C1=C(C)NC(C)=C(C(=O)OC)C1c1cn(-c2ccccc2)nc1-c1ccco1 | inconclusive: 3.16 µM [inhibitor, partial curve, poor fit] |
| COc1ccccc1CNC(=O)CCNS(=O)(=O)c1ccc2[nH]c(=O)oc2c1 | inactive |
| CCC(NC(C)C)C(O)c1ccc(O)c2[nH]c(=O)ccc12 (stereo unspecified) | inconclusive: 35.5 µM [inhibitor, single point] |
| CC[C@@]12C=C(/C=C/c3ccccc3)[C@](CC)(C1)[C@H](c1ccccc1)CC2=O | inactive |
| c1ccc(-c2cc3c(N4CCOCC4)ncnc3s2)cc1 | inconclusive: 39.8 µM [inhibitor, single point] |
| O=C(O)c1ccc2cc(-c3ccc(O)c(C45CC6CC(CC(C6)C4)C5)c3)ccc2c1 | inactive |
| Cc1ccccc1OCC(O)Cn1c(NCCN(C)C)nc2c1c(=O)n(C)c(=O)n2C (stereo unspecified) | inconclusive: 0.0398 µM [inhibitor, full curve, poor fit] |
| COc1cc(CCNc2ccc3nnc(-c4ccccc4)n3n2)cc(OC)c1OC | inconclusive: 3.16 µM [inhibitor, single point] |
| CC(=O)O[C@H]1CC[C@H]2[C@@H]3CCc4cc(O)ccc4[C@H]3CC[C@]12C | inactive |
| Cc1cc2ncn(/N=C/c3ccc(-c4ccccc4)o3)c2cc1C | inconclusive: 0.224 µM [inhibitor, full curve, poor fit] |
| CC1=C(CO)C(=O)OC([C@@H](C)C2CC[C@H]3C4C[C@H]5O[C@]56[C@@H](O)C=CC(=O)[C@]6(C)C4CC[C@]23C)C1 (stereo partly specified) | inconclusive: 28.2 µM [inhibitor, partial curve, poor fit] |
| COc1cc(C=NNC(=O)c2ccccc2-n2cccc2)ccc1O | inactive |
| CCN(CC(=O)NCc1ccc(F)cc1)CC(=O)Nc1ccccc1-c1ccccc1 | inconclusive: 0.501 µM [inhibitor, full curve, poor fit] |
| O=C(NCc1ccc2c(c1)OCO2)c1ccc2c(c1)N(Cc1c(F)cccc1Cl)C(=O)CS2 | inconclusive: 20 µM [inhibitor, single point] |
| NC(=O)CNC(=O)C1CCCc2c1[nH]c1ccc(Cl)cc21 (stereo unspecified) | inconclusive: 56.2 µM [inhibitor, partial curve, poor fit] |
| CN(C)C=NC(=O)c1cc(C(=O)c2ccc(C(C)(C)C)cc2)c[nH]1 | inconclusive: 44.7 µM [inhibitor, single point] |
| CC(C)CC(=O)Nc1ccc(-c2cn3cccnc3n2)cc1 | inactive |
| CC(C)Nc1nc(C#N)nc(Nc2ccccc2)n1 | inactive |
| Cn1c(=O)c2cc(S(=O)(=O)Nc3cc(C(=O)O)cc(C(=O)O)c3)ccc2n(C)c1=O | inconclusive: 31.6 µM [inhibitor, single point] |
| N#Cc1ccccc1OCC(=O)NC(=O)NCc1ccco1 | inconclusive: 44.7 µM [inhibitor, single point] |

12 entries out of the list, sorted by molecular weight, low to high.

| SMILES | Potency |
| --- | --- |
| Nc1cccc2[nH]c(C(F)(F)F)nc12 | inconclusive: 22.4 µM [inhibitor, single point] |
| N#Cc1ccccc1OCC(=O)NC(=O)NCc1ccco1 | inconclusive: 44.7 µM [inhibitor, single point] |
| CN(C)C=NC(=O)c1cc(C(=O)c2ccc(C(C)(C)C)cc2)c[nH]1 | inconclusive: 44.7 µM [inhibitor, single point] |
| COc1cc(C=NNC(=O)c2ccccc2-n2cccc2)ccc1O | inactive |
| CC[C@@]12C=C(/C=C/c3ccccc3)[C@](CC)(C1)[C@H](c1ccccc1)CC2=O | inactive |
| O=C(O)c1ccc2cc(-c3ccc(O)c(C45CC6CC(CC(C6)C4)C5)c3)ccc2c1 | inactive |
| COc1cc(CCNc2ccc3nnc(-c4ccccc4)n3n2)cc(OC)c1OC | inconclusive: 3.16 µM [inhibitor, single point] |
| Cc1ccccc1OCC(O)Cn1c(NCCN(C)C)nc2c1c(=O)n(C)c(=O)n2C (stereo unspecified) | inconclusive: 0.0398 µM [inhibitor, full curve, poor fit] |
| COC(=O)C1=C(C)NC(C)=C(C(=O)OC)C1c1cn(-c2ccccc2)nc1-c1ccco1 | inconclusive: 3.16 µM [inhibitor, partial curve, poor fit] |
| CC1=C(CO)C(=O)OC([C@@H](C)C2CC[C@H]3C4C[C@H]5O[C@]56[C@@H](O)C=CC(=O)[C@]6(C)C4CC[C@]23C)C1 (stereo partly specified) | inconclusive: 28.2 µM [inhibitor, partial curve, poor fit] |
| O=C(NCc1ccc2c(c1)OCO2)c1ccc2c(c1)N(Cc1c(F)cccc1Cl)C(=O)CS2 | inconclusive: 20 µM [inhibitor, single point] |
| COc1ccc(S(=O)(=O)N2CN(CCc3ccc(OC)c(OC)c3)c3nc4ccccc4nc32)cc1 | inconclusive: 2.82 µM [inhibitor, single point] |
